No constants are given. Whether binding was seen depends on the method and setting. In cells and extracts the contact can be indirect. These calls come from enrichment with a bait or labelling near it, and not all partners need be listed.
Molecular target: APEX2-WDR47 (mouse) (UniProt Q8CGF6)
Experiment: proximity labelling; APEX2-WDR47 expressed in mEPCs by adenovirus; 500 uM biotin-phenol at 37 C for 30 min, 1 mM H2O2 for 1 min; lysis in RIPA buffer, biotinylated proteins on streptavidin-conjugated agarose beads, shotgun mass spectrometry; cutoff >= twofold peptide ratio against the mock-treated control

Amino acid sequences for entries named in this document (tags omitted).
UniProt Q8CGF6: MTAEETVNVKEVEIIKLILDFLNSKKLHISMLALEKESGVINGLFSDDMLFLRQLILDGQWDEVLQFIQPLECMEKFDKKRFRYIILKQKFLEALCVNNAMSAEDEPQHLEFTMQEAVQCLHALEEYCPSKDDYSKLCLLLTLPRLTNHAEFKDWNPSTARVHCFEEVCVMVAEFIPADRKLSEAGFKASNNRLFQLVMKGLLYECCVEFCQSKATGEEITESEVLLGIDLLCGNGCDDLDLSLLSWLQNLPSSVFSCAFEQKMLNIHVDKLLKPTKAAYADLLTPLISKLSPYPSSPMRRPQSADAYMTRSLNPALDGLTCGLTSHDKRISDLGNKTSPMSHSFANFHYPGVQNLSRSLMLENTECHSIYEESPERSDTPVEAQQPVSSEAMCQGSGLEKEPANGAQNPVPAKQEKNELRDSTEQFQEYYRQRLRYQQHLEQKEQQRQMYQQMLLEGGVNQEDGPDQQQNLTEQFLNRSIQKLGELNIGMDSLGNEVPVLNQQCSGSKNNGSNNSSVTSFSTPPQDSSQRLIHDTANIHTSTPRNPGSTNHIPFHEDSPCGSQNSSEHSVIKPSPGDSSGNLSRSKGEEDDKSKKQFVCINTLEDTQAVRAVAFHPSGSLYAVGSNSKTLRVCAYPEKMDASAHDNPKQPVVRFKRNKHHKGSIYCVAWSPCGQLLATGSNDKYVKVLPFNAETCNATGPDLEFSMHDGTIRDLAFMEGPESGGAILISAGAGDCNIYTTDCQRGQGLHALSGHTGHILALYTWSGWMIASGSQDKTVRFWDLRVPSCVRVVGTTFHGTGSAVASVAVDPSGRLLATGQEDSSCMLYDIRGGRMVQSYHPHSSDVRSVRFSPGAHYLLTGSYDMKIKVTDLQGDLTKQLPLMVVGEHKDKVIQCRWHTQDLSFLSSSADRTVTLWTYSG

Row | Binder | binding
1 | SPEF1 (endogenous) (protein, UniProt Q99JL1 1-234) MESSVDEEALHQLYLWVDNIPLSRPKRNLSRDFSDGVLVAELIKFYFPKMVEMHNYVPANSLQQKLSNWGHLNRKVLNKLNFSVPDDVMRKIAQCSPGVVELVLIPLRQRLEERQRRQKLGVGSLQELAPQDSSGYMDMGLPQKVRGEGAPALGEQLREGRPLASRPPGYNQALQGDPSFVLQIAEKEQELLASQETVQVLQMKVKRLEHLLQLKNVRIDDLSRRLQQAERKQR | binds
2 | CCDC13 (protein, UniProt D3YV10 1-709) MAADESSADTLRLQFKAMQELQHRRLQKQMEKKREKELSCQSKADNQEGFMVIPDGLSLLDTEEQNLKNIFEKRVLEDEIQHLRSELRETVDENGRLYKLLKERDFEIKHLKKKIEEDRFAFTGASGMAGDLVATKIVELSKKNRGLMAESESAKVRIKQLTNRIQELEHQLQMASAKPPSKGATDAGAKPLKTQTGDRALLETPEVKALQDRLAATNLKMSDLRNQIQSAKQELRVAQKVLANEVGEDVNIQQLLASPGTWRGRAQQILVLQSRVRDLEKQLGQRQNKPAGSSSSEVPLSSDSRKMTAQEKNLLRIRSLERDKQESWEKLASERDTLQTELEELRKKFEGMRSRNKVLSSEVKTLRSQMTTLVEKGRHDDELIDALMDQLKQLQDILSSLSVQEESRRTSQQHLDQKVNSEAQRSSSLVAQLRAMVADREAKVRQLELEIGQLSVQYLHGKGGGEGASPADARFPEDQTPITNSPASAGDHVGRLGSSRSVTSLGHTLVESALTRPSLPSPHGTSPRFSDSPEQKGWQAQAAEMKALWQAAEVERDRLNEFVTVLQKRVEESSSKLLEAERRLQEERQRAVLLEQHLEKMRLEPSRASVSQKTKNKPGPPAANTKPNSAGSAKKDSSSTQLCDMPMESQIQELNARLAIQMEENGILRDALGSALRGKEEDFRMYHQTLGQVKGVFLQALRQQKANKQ | binds
3 | SPAG6 (protein, UniProt Q9JLI7 1-507) MSQRQVLQVFEQYQKARTQFVQMVAELATRPQNIETLQNAGVMSLLRPLLLDVVPTIQQTAALALGRLANYNDDLAEAVVKGDILPQLVYSLAEQNRFYKKAAAFVLRAVGKHSPQLAQAIVDCGALDTLVICLEDFDPGVKEAAAWALGYIARHNTELSQAVVDAGAIPLLVLCIQEPEIALKRIAASALSDISKHSPELAQTVVDAGAIAHLAQMILNPDAKLKRQVLSALSQIAKHSVDLAEMVVEAEIFPVVLTCLKDKDEYVKKNACTLIREIAKHTPELSQLIVNAGGVAAVIDCIGSCKGNIRLPGIMMLGYVAAHSENLAMAVIISKGVPQLSICLSEEPEDHIKAAAAWALGQLGRHTPEHARAVAVTNTLPVLLSLYMSPESSEDLQLKSKKAIKNILQKCTYLPALEPFLYDAPPNILKHVVGQFSKVLPHDSKARRLFVTSGGLKKVQEIKAEPGSLLQEYINSINNCYPEEIVRYYSPGYSDTLLQRVDSYQPL | binds

Reference: publication PMC12979858
